Experimental data published in the supplement of paper PMC12873370.
The other results are listed elsewhere or left out. Single values are uncertain, as repeats are few or missing.

Tested on: PREPP (mouse prostate epithelium Trp53/Pten KO)
Test: cell viability relative to untreated (fraction); higher = less growth inhibition
Conditions: 5 µM; 3 days

Q: With `C[C@H]1O[C@@H](O[C@H]2CC[C@@]3(C)[C@@H](CC[C@]4(C)[C@@H]3C=C[C@]35OC[C@@]6(CCC(C)(C)C[C@H]63)[C@@H](O)C[C@]54C)[C@]2(C)CO)[C@H](O)[C@@H](O[C@@H]2O[C@H](CO)[C@@H](O)[C@H](O)[C@H]2O)[C@H]1O` as the molecule, how does the cell viability read?
A: The cell viability was 0.871.

Q: With `Cc1cn(C2OC(CO)C(O)C2O)c(=O)[nH]c1=O` (stereo not given) as the molecule, how does the cell viability read?
A: The cell viability was 0.949.

Q: `CCCN[C@H]1CCc2nc(N)sc2C1` was tested. Which cell viability did it give?
A: Its cell viability is 0.894.

Q: How did the cell viability turn out when `CC1=C(C/C=C(\C)CCC[C@H](C)CCC[C@H](C)CCCC(C)C)C(=O)c2ccccc2C1=O` was run?
A: The cell viability was 0.888.

Q: For `COc1ccc([C@@H]2CC(=O)c3c(O)cc(O[C@@H]4O[C@H](CO[C@@H]5O[C@@H](C)[C@H](O)[C@@H](O)[C@H]5O)[C@@H](O)[C@H](O)[C@H]4O)cc3O2)cc1O`, which cell viability is on record?
A: The cell viability was 1.48.

Q: `O=C1CN(/N=C/c2ccc([N+](=O)[O-])o2)C(=O)N1` was tested. Which cell viability did it give?
A: Its cell viability is 0.683.

Q: Which cell viability does the source give for `C[C@@H]1NC(=O)[C@@H](N)CNC(=O)[C@H](C2CCNC(=N)N2)NC(=O)/C(=C/NC(N)=O)NC(=O)[C@H](CNC(=O)CC(N)CCCN)NC1=O.N=C1NCCC([C@@H]2NC(=O)/C(=C/NC(N)=O)NC(=O)[C@H](CNC(=O)CC(N)CCCN)NC(=O)[C@H](CO)NC(=O)[C@@H](N)CNC2=O)N1` (stereo not given in full) here?
A: Its cell viability is 1.05.

Q: `COc1cc2c(c(OC)c1OC)-c1c(cc3c(c1OC)OCO3)CC(C)C(C)C2` (stereo not given) was tested. Which cell viability did it give?
A: The cell viability was 0.946.

Q: With `NC(CO)C(=O)O` (stereo not given) as the molecule, how does the cell viability read?
A: The cell viability was 0.996.

Q: How did the cell viability turn out when `C[C@H]1c2cccc(O)c2C(=O)C2=C(O)[C@]3(O)C(=O)C(C(N)=O)=C(O)[C@@H](N(C)C)[C@@H]3[C@@H](O)[C@@H]21` was run?
A: The cell viability was 0.798.
